From article PMC10541524
Construct, isoform or probe ends are uncertain for at least one entry.

What was measured:
PhOBF1 (Petunia hybrida) [1] = experiment: competition EMSA; conditions: 50- and 100-fold unlabeled over N1; LightShift EMSA Optimization and Control Kit (Pierce); 6% non-denaturing PAGE; pH and temperature not stated; recombinant protein; protein details: His (pET28a)
PhOBF1 (Petunia hybrida) [2] = experiment: EMSA; conditions: LightShift EMSA Optimization and Control Kit (Pierce); 6% non-denaturing PAGE; pH and temperature not stated; recombinant protein; protein details: His (pET28a); label: 5' biotin on strand 1

| Sequence | binding result (PhOBF1 (Petunia hybrida) [1]) | binding result (PhOBF1 (Petunia hybrida) [2]) |
| --- | --- | --- |
| AATATGAATTAATTTACACGTGTATTGATTAAAAA (double strand) [pPhGA20ox3-WT cold competitor] | binds |  |
| AATATGAATTAATTTACACGTGTATTGATTAAAAA (double strand) [pPhGA20ox3-WT probe] |  | binds |
